Laboratory results from article PMC5297841.
Results are given in words; binding and its absence hold for the method and conditions named. Binding seen in cells or lysates may run through a third protein. Some results given as binding are weak or reduced against the parent protein; the word gives no strength.

The chains behind the UniProt entries cited, without tags or fusion partners. Residues count along the entry.
UniProt P35613, residues 346-385: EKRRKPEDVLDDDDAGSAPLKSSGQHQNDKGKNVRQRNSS

Columns and labels:
[1] = target: GST-CD147-ICD (human) (UniProt P35613); assay: pull-down; 20 ug GST-CD147-ICD or GST pre-bound to coupling resin; lysate of 1 x 10^7 cells (cell line not given); eluate analysed by Western blot for FBXO22; only the target purified
[2] = target: eGFP-C2-ICD (human) (UniProt P35613); assay: co-IP; eGFP-C2-ICD (ICD-GFP) overexpressed in SMMC-7721 cells for 36 h; lysate on coupling resin pre-bound with GFP antibody; Western blot

binding [1]: binds
binding [2]: binds
Substance: FBXO22 (from UniProt Q8NEZ5-1 1-403)
